Laboratory results published in PubChem BioAssay (NCATS).
Inconclusive results, whose numbers are uncertain, are shown with a selection of clear calls. Where the call is inconclusive, the potency comes from a doubtful curve fit. Activity calls are given as the source filed them. Calls follow the shape of the dose curve; as a rule, active = well fitted cell-killing curve with a large enough effect; inconclusive = small, poorly fitted or top-dose-only effect, or effect the other way; inactive = no such curve, though single readings can be large or run the other way.

assay: Quantitative High-Throughput drug screen in 47 multiple myeloma cell lines against the NCATS MIPE library collection: FR4_PLB cell viability assay (AID 1918924; also: nearly all actives have a fitted effect of over 35% in size;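 as to viability (% of DMSO control): 100% = DMSO-treated cells and 0% = wells with media only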); details: FR4_PLB myeloma cells viability, CellTiter-Glo ATP, 48 h; series mostly up to 45.8 µM; viability (% of DMSO control): at the top concentration
Procedure, shortened: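 Primary qHTS used for cherry-picking: cells at 500/well, library compounds for 48 h (37C, 5% CO2), luminescent ATP assay.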
Potency is read from the fitted curve at half-maximal effect.

Compound | Potency | viability (% of DMSO control)
C=C1[C@H](n2cnc3c(=O)[nH]c(N)nc32)C[C@H](O)[C@H]1CO | inconclusive: 37.2 µM [cytotoxic, single point] | 
NCCCC(O)(P(=O)(O)O)P(=O)(O)O |  | inactive: 111%
CC(C)(C)NC(=O)[C@H]1CC[C@H]2[C@@H]3CC[C@H]4NC(=O)C=C[C@]4(C)[C@H]3CC[C@]12C | inconclusive: 0.235 µM [cytotoxic, partial curve, poor fit] | 
COc1cc2c(Nc3ccc(Br)cc3F)ncnc2cc1OCC1CCN(C)CC1 | inconclusive: 29.6 µM [cytotoxic, single point] | 
CC1(C)O[C@@H]2C[C@@H]3[C@H]4C[C@@H](F)C5=CC(=O)C=C[C@]5(C)[C@@]4(F)[C@@H](O)C[C@]3(C)[C@]2(C(=O)CO)O1 |  | inactive: 90.2%
CS[C@H]1SC[C@@H]2C(=O)N(C)[C@H](C(C)C)C(=O)OC[C@H](NC(=O)c3cnc4ccccc4n3)C(=O)N[C@H](C)C(=O)N(C)[C@@H]1C(=O)N(C)[C@H](C(C)C)C(=O)OC[C@H](NC(=O)c1cnc3ccccc3n1)C(=O)N[C@H](C)C(=O)N2C | active: 0.0042 µM | 
NC1(C(=O)N[C@@H](CCO)c2ccc(Cl)cc2)CCN(c2ncnc3[nH]ccc23)CC1 | inconclusive: 20.9 µM [cytotoxic, partial curve] | 
O=C(Nc1cccc(C(F)(F)F)c1)Nc1cc(S(=O)(=O)NC2CC2)ccc1-c1ccsc1 | inconclusive: 23.5 µM [cytotoxic, single point] | 
CCCCCCNC(=O)n1cc(F)c(=O)[nH]c1=O | inconclusive: 23.5 µM [cytotoxic, single point] | 
COc1cccc2c1C(=O)c1c(O)c3c(c(O)c1C2=O)C[C@@](O)(C(=O)CO)C[C@H]3O[C@H]1C[C@H](N)[C@H](O)[C@H](C)O1 | active: 0.264 µM | 
